Source: paper PMC4476799, “Englerin A Agonizes the TRPC4/C5 Cation Channels to Inhibit Tumor Cell Line Proliferation” (PLoS ONE, 2015)
This continues a long series; more values of the same kind are listed elsewhere.

Tested on: cancer cell lines from the cancer cell line encyclopedia (CCLE)
Test: Cell line profiling (CLiP) proliferation experiment
Type: cell-based
Design: ACTIVITY_AREA: scale not given here; AMAX: unit not given here
Description: Compound profiling experiment and data analysis was performed as previously described. Data was imported and plotted using the Tibco Spotfire DXP application. Lines were categorized as sensitive, intermediate and refractory as follows: Amax<-40 & Inflection Point <2 ~ Sensitive, Amax>-20 & Inflection Point >10 ~ Refractory, all else were called Intermediate. Cancer Cell line HG-U133 Plus 2 data was processed and normalized as described. […] Five sets of refractory cell lines were generated from the pool of refractory cell lines trying to match the lineage composition of the set of sensitive cell lines. The limma package was used as previously described to perform the statistical comparison.

[1] = cell line AGS, stomach, adenocarcinoma
[2] = cell line AMO-1, haematopoietic_and_lymphoid_tissue, plasma_cell_myeloma
[3] = cell line AN3 CA, endometrium, adenocarcinoma
[4] = cell line BDCM, haematopoietic_and_lymphoid_tissue, acute_lymphoblastic_B_cell_leukaemia
[5] = cell line BHY, upper_aerodigestive_tract, squamous_cell_carcinoma
[6] = cell line BICR 6, upper_aerodigestive_tract, squamous_cell_carcinoma
[7] = cell line BICR 16, upper_aerodigestive_tract, squamous_cell_carcinoma
[8] = cell line BICR 22, upper_aerodigestive_tract, squamous_cell_carcinoma
[9] = cell line BL-41, haematopoietic_and_lymphoid_tissue, Burkitt_lymphoma
[10] = cell line BT-20, breast, ductal_carcinoma
[11] = cell line BT-549, breast, ductal_carcinoma
[12] = cell line BV-173, haematopoietic_and_lymphoid_tissue, blast_phase_chronic_myeloid_leukaemia
[13] = cell line BxPC-3, pancreas, ductal_carcinoma
[14] = cell line CAL-29, urinary_tract, transitional_cell_carcinoma
[15] = cell line Caki-1, kidney, clear_cell_renal_cell_carcinoma
[16] = cell line Caki-2, kidney, clear_cell_renal_cell_carcinoma
[17] = cell line Caov-3 (ovary, adenocarcinoma)
[18] = cell line DBTRG-05MG (central_nervous_system, astrocytoma_Grade_IV)
[19] = cell line DLD-1 (large_intestine, adenocarcinoma)
[20] = cell line DU 145 (prostate, NS)
[21] = cell line DV-90 (lung, adenocarcinoma)
[22] = cell line EFM-19 (breast, ductal_carcinoma)
[23] = cell line EM-2 (haematopoietic_and_lymphoid_tissue, blast_phase_chronic_myeloid_leukaemia)
[24] = cell line GCT (soft_tissue, NS)
[25] = cell line GI-1 (central_nervous_system, gliosarcoma)
[26] = cell line GOS-3 (central_nervous_system, astrocytoma)
[27] = cell line HARA (lung, squamous_cell_carcinoma)

## CC(C)[C@@]12C[C@@H](O)[C@@](C)(O1)[C@@H]1CC[C@@H](C)[C@H]1[C@@H]2OC(=O)/C=C/c1ccccc1 [Englerin B]
[1]
  AMAX: -69.99
  RESPONSE: INTERMEDIATE
[2]
  ACTIVITY_AREA: 38.41
  AMAX: -82.44
  RESPONSE: INTERMEDIATE
Cell line AN3 CA
  ACTIVITY_AREA: 72.69
  AMAX: -59.95
  RESPONSE: INTERMEDIATE
[3]
  ACTIVITY_AREA: 72.69
  AMAX: -59.95
  RESPONSE: INTERMEDIATE
Cell line AU565, breast, NS
  ACTIVITY_AREA: 45.07
  AMAX: -69.47
  RESPONSE: INTERMEDIATE
[4]
  ACTIVITY_AREA: 30.98
  AMAX: -76.17
  RESPONSE: INTERMEDIATE
Cell line BFTC-909
  ACTIVITY_AREA: 34.39
  AMAX: -23.31
  RESPONSE: INTERMEDIATE
Cell line BFTC-909, kidney, NS
  ACTIVITY_AREA: 34.39
  AMAX: -23.31
  RESPONSE: INTERMEDIATE
[5]
  ACTIVITY_AREA: 30
  AMAX: -53.57
  RESPONSE: INTERMEDIATE
[6]
  ACTIVITY_AREA: 60.16
  AMAX: -61.58
  RESPONSE: INTERMEDIATE
[7]
  ACTIVITY_AREA: 117.1
  AMAX: -74.26
  RESPONSE: INTERMEDIATE
[8]
  ACTIVITY_AREA: 28.9
  AMAX: -66.9
  RESPONSE: INTERMEDIATE
[9]
  ACTIVITY_AREA: 23.12
  AMAX: -91.54
  RESPONSE: INTERMEDIATE
[10]
  ACTIVITY_AREA: 21.1
  AMAX: -41.63
  RESPONSE: INTERMEDIATE
Cell line BT-549
  ACTIVITY_AREA: 85.52
  AMAX: -59.24
  RESPONSE: INTERMEDIATE
[11]
  ACTIVITY_AREA: 85.52
  AMAX: -59.24
  RESPONSE: INTERMEDIATE
[12]
  ACTIVITY_AREA: 54.37
  AMAX: -88.99
  RESPONSE: INTERMEDIATE
[13]
  ACTIVITY_AREA: 22.8
  AMAX: -60.21
  RESPONSE: INTERMEDIATE
Cell line C32, skin, NS
  ACTIVITY_AREA: 19.38
  AMAX: -36.76
  RESPONSE: INTERMEDIATE
[14]
  ACTIVITY_AREA: 38.07
  AMAX: -71.25
  RESPONSE: INTERMEDIATE
Cell line CAL-51, breast, NS
  ACTIVITY_AREA: 23.14
  AMAX: -39.24
  RESPONSE: INTERMEDIATE
Cell line CAL-120, breast, NS
  ACTIVITY_AREA: 23.97
  AMAX: -51.61
  RESPONSE: INTERMEDIATE
Cell line COLO-800 (skin, NS)
  ACTIVITY_AREA: 66.95
  AMAX: -43.63
  RESPONSE: INTERMEDIATE
Cell line COV504 (ovary, NS)
  ACTIVITY_AREA: 33.53
  AMAX: -45.79
  RESPONSE: INTERMEDIATE
[15]
  ACTIVITY_AREA: 27.97
  AMAX: -31.84
  RESPONSE: INTERMEDIATE
[16]
  ACTIVITY_AREA: 52.8
  AMAX: -38.65
  RESPONSE: INTERMEDIATE
Cell line Calu-1
  ACTIVITY_AREA: 52.11
  AMAX: -42.82
  RESPONSE: INTERMEDIATE
[17]
  ACTIVITY_AREA: 128.76
  AMAX: -55.06
  RESPONSE: INTERMEDIATE
[18]
  ACTIVITY_AREA: 21.88
  AMAX: -30.64
  RESPONSE: INTERMEDIATE
[19]
  ACTIVITY_AREA: 71.46
  AMAX: -59.67
  RESPONSE: INTERMEDIATE
Cell line DMS 114
  ACTIVITY_AREA: 21.61
  AMAX: -57.16
  RESPONSE: INTERMEDIATE
Cell line DOHH-2
  ACTIVITY_AREA: 33.67
  AMAX: -98.82
  RESPONSE: INTERMEDIATE
[20]
  ACTIVITY_AREA: 176.13
  AMAX: -54.93
  RESPONSE: INTERMEDIATE
[21]
  ACTIVITY_AREA: 23.59
  AMAX: -71.93
  RESPONSE: INTERMEDIATE
Cell line Detroit 562
  ACTIVITY_AREA: 35.45
  AMAX: -46.18
  RESPONSE: INTERMEDIATE
Cell line EB1
  ACTIVITY_AREA: 13.39
  AMAX: -56.14
  RESPONSE: INTERMEDIATE
Cell line EB2
  ACTIVITY_AREA: 28.45
  AMAX: -57.08
  RESPONSE: INTERMEDIATE
[22]
  ACTIVITY_AREA: 28.98
  AMAX: -31.96
  RESPONSE: INTERMEDIATE
Cell line EFM-192A
  ACTIVITY_AREA: 78.14
  AMAX: -57.28
  RESPONSE: INTERMEDIATE
[23]
  ACTIVITY_AREA: 14.33
  AMAX: -44.27
  RESPONSE: INTERMEDIATE
Cell line EN
  ACTIVITY_AREA: 5.5
  AMAX: -23.22
  RESPONSE: INTERMEDIATE
Cell line ES-2
  ACTIVITY_AREA: 44.96
  AMAX: -44.71
  RESPONSE: INTERMEDIATE
Cell line ESS-1
  ACTIVITY_AREA: 41.09
  AMAX: -72.67
  RESPONSE: INTERMEDIATE
Cell line FU-OV-1
  ACTIVITY_AREA: 158.99
  AMAX: -69.93
  RESPONSE: INTERMEDIATE
Cell line G-361
  ACTIVITY_AREA: 55.99
  AMAX: -32.98
  RESPONSE: INTERMEDIATE
Cell line G-401
  ACTIVITY_AREA: 47.08
  AMAX: -74.97
  RESPONSE: INTERMEDIATE
Cell line GA-10
  ACTIVITY_AREA: 28.18
  AMAX: 8.5
  RESPONSE: REFRACTORY
Cell line GCIY
  ACTIVITY_AREA: 49.94
  AMAX: -70.92
  RESPONSE: INTERMEDIATE
[24]
  ACTIVITY_AREA: 17.95
  AMAX: -52.9
  RESPONSE: INTERMEDIATE
[25]
  ACTIVITY_AREA: 112.12
  AMAX: -25.87
  RESPONSE: INTERMEDIATE
Cell line GMS-10
  ACTIVITY_AREA: 21.47
  AMAX: -32.03
  RESPONSE: INTERMEDIATE
[26]
  ACTIVITY_AREA: 26.28
  AMAX: -31.04
  RESPONSE: INTERMEDIATE
Cell line GP2d
  ACTIVITY_AREA: 32.63
  AMAX: -48.04
  RESPONSE: INTERMEDIATE
Cell line GR-M
  ACTIVITY_AREA: 48.68
  AMAX: -36.64
  RESPONSE: INTERMEDIATE
Cell line GRANTA-519
  ACTIVITY_AREA: 14.82
  AMAX: 16.83
  RESPONSE: REFRACTORY
Cell line H4
  ACTIVITY_AREA: 16.33
  AMAX: -3.42
  RESPONSE: REFRACTORY
[27]
  ACTIVITY_AREA: 73.57
  AMAX: -72.32
  RESPONSE: INTERMEDIATE
Cell line HCC38
  ACTIVITY_AREA: 10.97
  AMAX: -45.93
